Test results published in PubChem BioAssay AID504467 (National Center for Advancing Translational Sciences (NCATS), 2011).
Among all 330,000 compounds or so, about 7,700 (2.3%) were called active. Inconclusive results, whose numbers are uncertain, are shown with a selection of clear calls. Calls come from the whole dose curve; as a rule, active = well fitted inhibition curve with a large enough effect; inconclusive = small, poorly fitted or top-dose-only effect, or effect the other way; inactive = flat fitted curve, though single readings scatter. Where the call is inconclusive, the potency comes from a doubtful curve fit.

Experiment: qHTS screen for small molecules that inhibit ELG1-dependent DNA repair in human embryonic kidney (HEK293T) cells expressing luciferase-tagged ELG1; note: nearly all actives have a fitted effect of over 55% in size
Conditions: HEK293T ELG1-luciferase reporter, luminescence, 16 h, DNA damage induced by 5-fluorouridine; series mostly up to 46.1 µM
Procedure, shortened: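 Reporter activity after DNA damage by 5-fluorouridine is monitored. Compound-treated cells incubate 16 hr at 37 °C, then ONE-Glo is added for 30 min before luminescence reading.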
Potency is the fitted concentration of half-maximal effect.

Structure (SMILES) | Potency
C=CCN(C(=O)COC(=O)c1cc[n+]([O-])cc1)c1nc(-c2ccccc2)cs1 | inconclusive: 16.4 µM [activator, partial curve]
O=C(O)Cc1nn(Cc2ccc(Cl)cc2)c(=O)c2ccccc12 | inactive
COc1ccc(C2C(C#N)=C(N)N(Nc3ccccc3)C3=C2C(=O)CC(C)(C)C3)cc1C (stereo not drawn) | inconclusive: 16.4 µM [inhibitor, single point]
CC(C)(C)c1ccc(COc2ccsc2C(=O)O)cc1 | inconclusive: 29.1 µM [activator, single point]
O=C(O)CN1C(=O)/C(=C\c2cn(CC(=O)N3CCOCC3)c3ccccc23)SC1=S | inactive
COc1ccccc1NS(=O)(=O)c1cccc(C(=O)N/N=C/c2ccc([N+](=O)[O-])o2)c1 | inconclusive: 5.8 µM [inhibitor, single point]
CCOC(=O)c1[nH]c2ccccc2c1NC(=O)c1ccc(S(=O)(=O)N2CCCCC2)cc1 | inactive
COc1cc2cccc(OC)c(=O)c2c(OC)c1OC | inconclusive: 16.4 µM [activator, single point]
CC1Oc2ccccc2C=C1/C=N\NC(=O)c1cccnc1 (stereo not drawn) | inconclusive: 18.3 µM [activator, partial curve]
CC(C)(C)[C@H]1COC(=O)CCCC/C=C\C[C@H](CC(=O)NCCO)C(=O)N1 | inactive
Cc1ccccc1NC(=O)Nc1nc2ccc(S(C)(=O)=O)cc2s1 | inconclusive: 3.26 µM [activator, full curve]
Cc1ccc(CNC(=O)CSc2nc3ccccc3c(=O)n2CCCO)cc1 | inactive
CC(=O)c1ccc(-c2nnc(CCC(=O)N3CCCC(C(=O)CC(C)C)C3)o2)s1 (stereo not drawn) | inconclusive: 20.6 µM [activator, partial curve]
CCOC(=O)c1c(-c2ccc(OC)cc2)csc1NC(=O)CCN1C(=O)c2ccccc2C1=O | inconclusive: 6.51 µM [activator, single point]
CCOc1ccc(C2=NNC(c3cccs3)=Nc3ccc(OC)cc32)cc1 | inconclusive: 20.6 µM [inhibitor, single point]
COc1cccc(N2CCN(C(=O)CN(C)S(=O)(=O)c3ccc4c(c3)CCC(=O)N4)CC2)c1 | inconclusive: 18.4 µM [inhibitor, single point]
CCOC(=O)c1cc(-c2ccccc2)nn1Cc1cc(C)no1 | inconclusive: 22.4 µM [activator, single point]
Cc1c(NC(=O)CSc2nnc3c4ccccc4n(CCc4ccccc4)c3n2)c(=O)n(-c2ccccc2)n1C | inconclusive: 20.6 µM [inhibitor, partial curve, poor fit]
CC1CCN(C(=S)SCc2nc(N)nc(Nc3ccccc3)n2)CC1 | inconclusive: 29.1 µM [inhibitor, single point]
CN(CC(=O)Nc1ccc(F)c(F)c1F)C(=O)CC1CCCCC1 | inactive
CC(=O)N1CCN(c2ncnc3ccccc23)CC1 | inconclusive: 10 µM [inhibitor, partial curve, poor fit]
CC1CCCN(C(=O)Cn2c(=O)oc3ccccc32)C1 (stereo not drawn) | inconclusive: 29.1 µM [inhibitor, single point]
Cn1c(=O)n(CCc2ccccc2)c(=O)c2c1nc1n2CCN1Cc1ccco1 | active: 20.6 µM

Structure (SMILES) | Potency
CSc1nccc(NC(=O)c2ccc(C(C)(C)C)cc2)n1 | inconclusive: 2.59 µM [inhibitor, partial curve]
COc1ccc(CNC(=O)[C@@H](NC(=O)C2CCN(C(=O)[C@@H](N)CC(C)C)CC2)C(C)C)cc1 | inconclusive: 0.259 µM [activator, single point]
CCOc1ccc(S(=O)(=O)n2cc(-c3ccc(F)cc3)c(N)n2)cc1 | inactive
COc1ccc(N2CCN(c3ncnc4scc(-c5ccc(F)cc5)c34)CC2)cc1 | inconclusive: 29.1 µM [inhibitor, single point]
CC1(C)CC(=O)C(N=Nc2cc(Cl)c(Cl)c(Cl)c2)=C(O)C1 | inconclusive: 18.4 µM [activator, single point]
COc1ccc(-c2nnn(CC(=O)NCCc3c[nH]c4ccccc34)n2)cc1OC | inconclusive: 23.1 µM [inhibitor, single point]
COc1cccc(/C=N/N2CCN(c3ccccc3OC)CC2)c1 | inconclusive: 16.4 µM [activator, partial curve]
CCOC(=O)c1c(C)nc(C)c(C(=O)OCC)c1-c1ccc(O)c(OC)c1 | inconclusive: 6.51 µM [inhibitor, single point]
COc1ccc(N2CCN(C(=O)C3CCN(S(=O)(=O)c4ccccc4)CC3)CC2)cc1 | inactive
CC(C)OC(=O)c1c(NC(=O)c2ccco2)sc2c1CCCCC2 | inactive
CCOC(=O)C1(CCCc2ccccc2)CCN(C(=O)c2cnn(CC)c2)CC1 | inactive
O=S(=O)(c1cc(Cl)ccc1Cl)n1cccn1 | inactive
CCOC(=O)c1cc(-c2ccccc2)sc1NC(=O)C(C)N1C(=O)NC(C)(c2ccc(Cl)cc2)C1=O (stereo not drawn) | active: 25.9 µM
COc1ccc(-c2cc(C(=O)Oc3ccc([N+](=O)[O-])cc3)c3ccccc3n2)cc1 | inconclusive: 20.6 µM [activator, single point]
COc1ccc(N/C=C2\C(=O)c3c(sc(C)c3C)N(C)S2(=O)=O)cc1 | inconclusive: 4.11 µM [inhibitor, full curve, poor fit]
Cc1cccc(C(C)C)c1NC(=O)CN1C(=O)NC(Cc2ccccc2)C1=O (stereo not drawn) | inactive
COc1cc(/C=C/C2=NC(=O)C(C)(C)O2)ccc1O | active: 25.9 µM
Cc1ccnc(NC(=O)Cc2ccc(F)cc2)n1 | inactive
CC(C)(C)n1nnnc1CN1CCN(C(c2ccccc2)c2ccccc2)CC1 | active: 18.4 µM
COc1ccc(CCN2C(=O)c3[nH]nc(-c4ccccc4O)c3C2c2cccc(Cl)c2)cc1 (stereo not drawn) | inconclusive: 18.4 µM [inhibitor, partial curve]
Cc1nc(S(=O)(=O)Cc2ccccc2)nc2c1CCC2 | inconclusive: 29.1 µM [activator, single point]
CCCOc1ccc(-c2nn(-c3ccccc3)cc2/C=C2\SC(N)=NC2=O)cc1C | inactive
Cc1ccc2[nH]c(C(=O)N3CCCC(Nc4ccc(F)cc4)C3)cc2c1 (stereo not drawn) | inconclusive: 29.1 µM [inhibitor, single point]

Structure (SMILES) | Potency
COC1=C(c2ccccc2)C(=O)c2ccccc2C1=O | inactive
CN(C)CCP(=O)(c1ccccc1)c1ccccc1 | inactive
COc1cccc(-c2nc(-c3ccccc3)nc(N3CCN(C)CC3)c2C#N)c1 | inconclusive: 13 µM [inhibitor, partial curve]
CCCCOc1cccc(C(=O)Nc2ccc(S(=O)(=O)Nc3cc(C)on3)cc2)c1 | inactive
Cc1cccc(C(=O)NNC(=O)c2csc(N3CCOCC3)n2)c1C | inconclusive: 29.1 µM [activator, partial curve, poor fit]
O=C(NCc1cccnc1)Nc1ccc(Cl)cc1 | inconclusive: 18.3 µM [activator, single point]
Cc1cc(C(F)(F)F)nc(SCC(=O)Nc2cc(C)on2)n1 | inconclusive: 18.4 µM [activator, partial curve, poor fit]
COCCCn1c(-c2cccs2)nc2nc3ccccc3nc21 | inconclusive: 14.6 µM [inhibitor, partial curve, poor fit]
CSc1ccc(CNc2nnnn2C)cc1 | inconclusive: 23.1 µM [activator, partial curve, poor fit]
CN(C)c1nc(N)nc(N(c2ccccc2)c2ccccc2)n1 | inactive
CSCCC(NC(=O)c1ccccc1)C(=O)NC1CCCC1 (stereo not drawn) | inconclusive: 3.26 µM [inhibitor, single point]
CCC(=O)Nc1cccc(C(=O)c2ccc(C)c(C)c2)c1 | inactive
CC[C@]12c3[nH]c4ccccc4c3CCN1C(=O)C(CC(=O)NCc1cccc(C(F)(F)F)c1)C[C@@H]2C(=O)N1CCN(C(=O)c2ccco2)CC1 (stereo partly drawn) | inconclusive: 18.3 µM [inhibitor, partial curve, poor fit]
Cc1ccc2c(COC(=O)c3ccc(C)c(C)c3)cc(=O)oc2c1 | inconclusive: 2.31 µM [activator, partial curve, poor fit]
COc1ccc(CN(C)CC(=O)Nc2cccc(S(N)(=O)=O)c2)c(OC)c1OC | inconclusive: 32.6 µM [inhibitor, partial curve, poor fit]
O=C(CCCc1ccccc1)NCc1ccccn1 | inconclusive: 11.2 µM [activator, partial curve]
CCOC(=O)c1c(NC(=O)COC(=O)Cc2c[nH]c3ccccc23)sc(C(=O)N(C)C)c1C | inactive
COc1ccc(/C(C)=N/NC(=O)c2nnn(-c3nonc3N)c2-c2cccs2)cc1OC | inconclusive: 29.1 µM [activator, single point]
CCOc1ccc(-c2cc(C(=O)N/N=C(\C)c3cccnc3)c3ccccc3n2)c(OCC)c1 | inconclusive: 6.51 µM [inhibitor, partial curve, poor fit]
FC(F)(F)COc1cc(-c2nnc(SCc3ccccc3)n2Cc2ccco2)cc(OCC(F)(F)F)n1 | active: 18.3 µM
COc1ccc(C2CC(c3ccc(OC)c(OC)c3)=NN2S(C)(=O)=O)cc1 (stereo not drawn) | inconclusive: 6.51 µM [activator, partial curve]
C/C(=N/NC(=O)c1ccc(O)cc1)c1cccc([N+](=O)[O-])c1 | inconclusive: 20.6 µM [activator, partial curve]

Given in markdown: 2 of the compounds above

| Structure (SMILES) | Potency |
| --- | --- |
| FC(F)(F)COc1cc(-c2nnc(SCc3ccccc3)n2Cc2ccco2)cc(OCC(F)(F)F)n1 | active: 18.3 µM |
| COc1ccc(C2CC(c3ccc(OC)c(OC)c3)=NN2S(C)(=O)=O)cc1 (stereo not drawn) | inconclusive: 6.51 µM [activator, partial curve] |
